Our source for the binding values is PMC7725797.

By UniProt entry, the sequences of proteins in these tests, tags left out. Residues count along the entry.
UniProt P26022, residues 18-381: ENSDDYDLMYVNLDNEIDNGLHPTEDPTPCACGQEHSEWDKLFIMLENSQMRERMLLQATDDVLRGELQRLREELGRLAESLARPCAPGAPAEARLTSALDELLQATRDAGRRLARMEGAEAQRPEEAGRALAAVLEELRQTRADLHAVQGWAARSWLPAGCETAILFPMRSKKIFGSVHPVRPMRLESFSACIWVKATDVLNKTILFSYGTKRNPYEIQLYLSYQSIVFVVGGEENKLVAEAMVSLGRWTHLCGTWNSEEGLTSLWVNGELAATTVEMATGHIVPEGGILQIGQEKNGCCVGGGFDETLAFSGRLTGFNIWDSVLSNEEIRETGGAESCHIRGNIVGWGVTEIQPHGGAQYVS
UniProt P08603, residues 19-1231: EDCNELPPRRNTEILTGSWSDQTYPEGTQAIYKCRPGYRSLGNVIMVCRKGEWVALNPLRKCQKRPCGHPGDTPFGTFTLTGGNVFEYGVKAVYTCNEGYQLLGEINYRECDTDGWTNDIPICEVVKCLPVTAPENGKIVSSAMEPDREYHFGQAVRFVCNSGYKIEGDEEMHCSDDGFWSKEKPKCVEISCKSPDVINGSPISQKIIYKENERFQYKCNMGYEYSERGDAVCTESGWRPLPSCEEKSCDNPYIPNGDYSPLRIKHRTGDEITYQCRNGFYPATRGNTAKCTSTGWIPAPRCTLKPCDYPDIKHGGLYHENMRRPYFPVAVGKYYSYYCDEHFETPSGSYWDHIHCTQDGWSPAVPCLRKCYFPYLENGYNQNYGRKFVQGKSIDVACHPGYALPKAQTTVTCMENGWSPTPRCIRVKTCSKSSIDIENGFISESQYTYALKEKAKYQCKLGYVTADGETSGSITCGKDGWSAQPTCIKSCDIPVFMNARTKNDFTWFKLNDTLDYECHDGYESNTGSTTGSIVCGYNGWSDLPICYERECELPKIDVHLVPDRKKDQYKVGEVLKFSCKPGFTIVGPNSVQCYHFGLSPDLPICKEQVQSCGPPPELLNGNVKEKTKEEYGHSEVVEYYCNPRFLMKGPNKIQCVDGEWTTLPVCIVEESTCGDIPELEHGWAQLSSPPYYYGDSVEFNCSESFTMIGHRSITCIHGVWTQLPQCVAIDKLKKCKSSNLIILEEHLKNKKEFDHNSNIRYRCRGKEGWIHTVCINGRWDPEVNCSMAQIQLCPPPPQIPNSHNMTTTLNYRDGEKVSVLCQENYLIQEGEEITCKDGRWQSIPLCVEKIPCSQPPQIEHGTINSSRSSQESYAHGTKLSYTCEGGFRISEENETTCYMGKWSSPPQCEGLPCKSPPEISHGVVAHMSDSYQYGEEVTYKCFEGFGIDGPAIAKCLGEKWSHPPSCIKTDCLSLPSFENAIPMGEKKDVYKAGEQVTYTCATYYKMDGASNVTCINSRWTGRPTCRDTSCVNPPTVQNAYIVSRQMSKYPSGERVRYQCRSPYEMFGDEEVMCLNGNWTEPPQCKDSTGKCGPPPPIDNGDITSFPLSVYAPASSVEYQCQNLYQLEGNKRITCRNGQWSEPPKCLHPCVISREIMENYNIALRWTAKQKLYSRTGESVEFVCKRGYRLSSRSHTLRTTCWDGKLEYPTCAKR

Results are given in words; binding and its absence hold for the method and conditions named. Some results given as binding are weak or reduced against the parent protein; the word gives no strength.

This assay concerns the target recombinant human PTX3 (long pentraxin 3) (human) (UniProt P26022). Put plainly: SPR; PTX3 immobilised (surface-captured) on sensorchips; FH, C3b or a mixture of C3b and FH injected; both purified. In general terms: Surface plasmon resonance follows binding to a sensor surface in real time, without labels.

On to factor H (from UniProt P08603 19-1231), for which the binding result is “binds”.
